{"source": "patent US20230233425A1", "about": "“USE OF VOLATILE COMPOSITIONS TO LIMIT OR ELIMINATE THE PERCEPTION OF MALODOR” (Firmenich SA, priority 2017, published 2023)", "key": {"[1]": {"system": "geonol earthy/moss odor perception", "assay": "Human sensory performance of test compounds with and without geonol", "format": "in vivo", "excerpt": "Sensory Evaluation: Five 16 oz glass jars containing either REF (geonol only), geonol only control, antagonist only, mixture of geonol and isointense antagonist, or mixture of geonol and low intensity antagonist were presented to the panelists (last four samples were randomized across panelists). The panelists were asked to familiarize themselves with the earthy/moss odor quality from the REF jar first, then rate the pleasantness, earthy/moss odor intensity and overall odor intensity of the next four samples on a 0-10 linear scale. The inter-stimulus interval between the samples was two minutes to avoid adaptation. […]\nThe results are shown in Tables 16 and 17, and FIGS. 3 to 5."}, "[2]": {"system": "geonol malodor (earthy/moss odor) perception", "assay": "Sensory evaluation of geonol earthy/moss odor in iso-intense binary mixtures (glass jars)", "format": "in vivo, human", "settings": "iso-intense binary mixture", "excerpt": "Sensory Evaluation: Five 16 oz glass jars containing either REF (geonol only), geonol only control, antagonist only, mixture of geonol and isointense antagonist, or mixture of geonol and low intensity antagonist were presented to the panelists (last four samples were randomized across panelists). The panelists were asked to familiarize themselves with the earthy/moss odor quality from the REF jar first, then rate the pleasantness, earthy/moss odor intensity and overall odor intensity of the next four samples on a 0-10 linear scale. The inter-stimulus interval between the samples was two minutes to avoid adaptation."}}, "note": "The name of at least one read-out is uncertain. Marks after values point to notes of the source that are not given here."}
{"smiles": "Cc1ccc(C(C)C)cc1O", "note": "[Compound 2-methyl-5-propan-2-ylphenol, 2-methyl-5-propan-2-ylphenol]", "values": [{"measurement": "% Earthy/Moss Odor Remaining", "setting": "[1]; Low Dilution Test Compound + Geonol (0.1%)", "value": 77.30, "unit": "%"}, {"measurement": "% Earthy/Moss Odor Remaining", "setting": "[1]; Medium Dilution Test Compound + Geonol (0.1%)", "value": 56.00, "unit": "%"}, {"measurement": "% Remaining in human sensory tests", "setting": "[2]", "value": "27** %"}]}
